From PubChem BioAssay AID540303 (National Center for Advancing Translational Sciences (NCATS), 2011)
The campaign covered roughly 330,000 compounds. About 1,000 (0.3%) were called active. Inconclusive results, whose numbers are uncertain, are shown with a selection of clear calls. The call rests on the fitted dose curve; in most records, active means well fitted inhibition curve with a large enough effect; inconclusive means small, poorly fitted or top-dose-only effect; inactive means no such curve, though single readings can be large or run the other way; tested in mouse RAW 264.7 cells. A potency beside an inconclusive call is a rough fit, not a confirmed value.

Assay: qHTS for Inhibitors of Cell Surface uPA Generation; further: nearly all actives have a fitted effect of over 55% in size
Conditions: cell surface uPA generation assay; series mostly up to 38.3 µM
How it was run: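 ATP-Lite luminescence in RAW 264.7 cells after 24 h of exposure to compound, tested up to 38.3 uM final in 1:5 steps. Raised ATP reflects inhibition of uPA-dependent LF delivery to the cytoplasm.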
Potency means the concentration at half of the fitted maximal effect.

| Compound | Potency |
| --- | --- |
| CCOC(=O)C1CCCN(Cc2nc(N)nc(Nc3ccccc3OC)n2)C1 (stereo unspecified) | inconclusive: 8.91 µM [inhibitor, single point] |
| Cc1cc(C)n(CCc2nc(-c3ccc(C(C)(C)C)cc3)cs2)n1 | inconclusive: 28.2 µM [inhibitor, single point] |
| COc1ccc(-n2cc(-c3ccc(Br)cc3)[nH]c2=S)cc1 | inactive |
| COc1ccc(-c2nc(N/N=C(\C)c3ccc(O)cc3)c3ccccc3n2)cc1 | inconclusive: 4.47 µM [inhibitor, partial curve, poor fit] |
| CCCCNC(=O)[C@@H]1CSC2c3ccc(OC)c(OC)c3C(=O)N21 (stereo partly specified) | inconclusive: 2.82 µM [inhibitor, partial curve, poor fit] |
| Cc1ccn2cc(-c3nonc3C)cc2c1 | inconclusive: 8.91 µM [inhibitor, partial curve, poor fit] |
| CC(=O)Nc1ccc(S(=O)(=O)N2CCN(c3cc4c(cc3[N+](=O)[O-])n(C)c(=O)n4C)CC2)cc1 | inconclusive: 7.94 µM [inhibitor, single point] |
| CCCCNc1c(-c2ccc(SC3CCCCC3)cc2)nc2ccccn12 | inconclusive: 3.98 µM [inhibitor, partial curve, poor fit] |
| O=C(NC1CC1)c1cc2cc3ccccc3nc2s1 | inactive |
| COc1ccc(C(=O)N/N=C/c2cccnc2)cc1 | inconclusive: 2.51 µM [inhibitor, partial curve] |
| Nc1c(Cl)c(Cl)nc(C(=O)OCC(=O)N2CCCC2=O)c1Cl | inactive |
| CC1(C)C([N+](=O)[O-])C(c2ccc(Cl)cc2)NC(c2ccc(Cl)cc2)C1[N+](=O)[O-] (stereo unspecified) | inactive |
| CS(=O)(=O)Nc1cccc(-c2cn3c(n2)SCC3)c1 | inconclusive: 12.6 µM [inhibitor, single point] |
| c1ccc(COc2cccc(CNCc3ccccn3)c2)cc1 | inconclusive: 3.98 µM [inhibitor, full curve, poor fit] |
| CCOC(=O)c1c(NC(=O)CSc2nc3ccccc3[nH]2)sc2c1CC(C)(C)NC2(C)C | inconclusive: 28.2 µM [inhibitor, partial curve, poor fit] |
| Cc1cc(NC(=O)CSc2nc(-c3cccs3)cc(C(F)(F)F)n2)no1 | inconclusive: 1 µM [inhibitor, full curve, poor fit] |
| CCOc1cc(/C=C/C(=O)O)ccc1OCCO | inactive |
| C[C@@]12C(=O)Nc3cc(F)ccc3C(=O)N1[C@H]1c3ccccc3OC[C@@H]1[C@@H]2c1ccccc1 | inconclusive: 12.6 µM [inhibitor, single point] |
| COc1ccc(-n2cc(-c3ccccc3)[n+]3c2CCCCC3)cc1 | inactive |
| CCOC(=O)CCc1c(C(=O)OCC)[nH]c(CC)c1C(=O)OCc1ccccc1 | inactive |
| Cc1ccc(S(=O)(=O)N2CCCCC2CCNC(=O)C(=O)Nc2ccccc2F)cc1 (stereo unspecified) | inconclusive: 5.62 µM [inhibitor, full curve, poor fit] |
| CC1(C)CC(=O)C(C=Nc2ccc(O)cc2)=C(O)C1 | inconclusive: 11.2 µM [inhibitor, partial curve] |

Looked up above:
Value of Cc1cc(C)n(CCc2nc(-c3ccc(C(C)(C)C)cc3)cs2)n1 under Potency: inconclusive: 28.2 µM [inhibitor, single point]
Value of c1ccc(COc2cccc(CNCc3ccccn3)c2)cc1 under Potency: inconclusive: 3.98 µM [inhibitor, full curve, poor fit]
Value of COc1ccc(C(=O)N/N=C/c2cccnc2)cc1 under Potency: inconclusive: 2.51 µM [inhibitor, partial curve]
Value of CS(=O)(=O)Nc1cccc(-c2cn3c(n2)SCC3)c1 under Potency: inconclusive: 12.6 µM [inhibitor, single point]
Value of CC1(C)CC(=O)C(C=Nc2ccc(O)cc2)=C(O)C1 under Potency: inconclusive: 11.2 µM [inhibitor, partial curve]

(listing goes on)

| Compound | Potency |
| --- | --- |
| CC(C)N(C(=O)COC(=O)c1cccc(N(C)C)c1)c1ccccc1 | inactive |
| CC(C)(C)c1ccc(C(=O)CCC(=O)NCc2ccccc2)cc1 | inconclusive: 28.2 µM [inhibitor, single point] |
| O=C(C1CCCCC1)N(Cc1nc2sc3c(c2c(=O)[nH]1)CCCC3)Cc1cccs1 | inactive |
| Cc1cccc(Nc2ncnc3onc(-c4ccc(F)cc4)c23)c1C | inconclusive: 11.2 µM [inhibitor, single point] |
| CCc1ccccc1NC(=O)c1ccccc1Sc1ccc([N+](=O)[O-])cc1Cl | inconclusive: 12.6 µM [inhibitor, partial curve, poor fit] |
| CCN(c1ccccc1)c1nc(=O)c2cccnc2s1 | inconclusive: 3.98 µM [inhibitor, partial curve] |
| Cc1ccc2nc(-c3ccc(SCC(=O)Nc4nnc(C)s4)nc3)[nH]c2c1 | inactive |
| COc1cccc(/C=C2\SC(=S)N(CCC(=O)Nc3ccc(O)cc3)C2=O)c1 | inconclusive: 28.2 µM [inhibitor, single point] |
| O=C(N/N=C/c1ccccn1)c1cccs1 | inconclusive: 11.2 µM [inhibitor, single point] |
| COC(=O)[C@@]1(Cc2ccc(F)cc2)[C@@H]2[C@@H](CC(=O)[C@H]2CC(=O)C(=O)N(C)C)CN1C(=O)c1ccccc1 | inconclusive: 10 µM [inhibitor, partial curve, poor fit] |
| c1ccc(-c2nc(NCCCN3CCOCC3)c3ccccc3n2)cc1 | inactive |
| COc1ccccc1CN1CCCC(CN(CCN(C)C)C(=O)c2ccc(C)cc2)C1 (stereo unspecified) | inactive |
| Cc1ccccc1-n1nnnc1SCC(=O)Nc1ccc(N2CCN(C)CC2)cc1 | inconclusive: 7.94 µM [inhibitor, partial curve, poor fit] |
| Cc1cc(C)c(C(=O)/C=C/c2cccs2)c(=O)[nH]1 | inconclusive: 31.6 µM [inhibitor, partial curve, poor fit] |
| O=C(/C=C/c1ccccc1Cl)Nc1cccnc1 | inconclusive: 12.6 µM [inhibitor, partial curve, poor fit] |
| O=C(NC(=S)Nc1ccccc1N1CCOCC1)c1ccc(-c2cc(Cl)ccc2Cl)o1 | inactive |
| C[C@@H]1CN([C@@H](C)CO)C(=O)Cc2cc(NC(=O)Nc3cccc4ccccc34)ccc2O[C@@H]1CN(C)Cc1ccc(C(F)(F)F)cc1 | inconclusive: 10 µM [inhibitor, single point] |
| COc1cccc(-c2cc3nc4c(c(N5CCC6(CC5)OCCO6)n3n2)CCC4)c1 | inactive |
| CCCCN(C(=O)c1[nH]c(C)c(C(C)=O)c1C)c1c(N)n(CCCC)c(=O)[nH]c1=O | inactive |
| O=C(O)c1cccc(-n2sc3ccccc3c2=O)c1 | inconclusive: 2.51 µM [inhibitor, full curve, poor fit] |
| Cc1ccccc1SCC(=O)NNC(=O)c1ccncc1 | inconclusive: 12.6 µM [inhibitor, partial curve, poor fit] |
| Cc1cc(NC(=O)CN(C)CC(=O)Nc2ccc(Cl)c(C(F)(F)F)c2)no1 | inconclusive: 10 µM [inhibitor, partial curve, poor fit] |

| Compound | Potency |
| --- | --- |
| COc1ccc(-c2cc(C(=O)N/N=C(\C)c3cccnc3)c3ccccc3n2)cc1 | active: 8.91 µM |
| COc1ccc(COc2cc(-c3cccc(OC)c3)nc3ccc(NC(=O)c4ccc(Cl)cc4)cc23)cc1 | inconclusive: 12.6 µM [inhibitor, single point] |
| Nc1nc(Sc2ccc([N+](=O)[O-])cc2[N+](=O)[O-])n[nH]1 | inconclusive: 11.2 µM [inhibitor, partial curve, poor fit] |
| COC(=O)c1ccc(NC(=S)NC2CCCCC2C)cc1 (stereo unspecified) | inactive |
| O=C(NCc1ccc(Cl)cc1)c1ccc2c(=O)n(CC3CCCO3)c(=S)[nH]c2c1 (stereo unspecified) | inconclusive: 3.16 µM [inhibitor, single point] |
| NC(=O)c1ccccc1OCC(=O)N1CCC(Cc2ccccc2)CC1 | inconclusive: 6.31 µM [inhibitor, partial curve, poor fit] |
| O=[N+]([O-])c1ccc(CSC2=NCCN2)cc1 | inconclusive: 10 µM [inhibitor, partial curve, poor fit] |
| O=c1c2ccccc2cnn1Cc1n[nH]c(=S)n1-c1cc(Cl)cc(Cl)c1 | inactive |
| CC(C)CC(=O)Nc1cccc(-c2cn3ccsc3n2)c1 | inactive |
| Cc1ccc(S(=O)(=O)N2CCCCC2)cc1NC(=O)CNC(C)c1ccc(Cl)c(Cl)c1 (stereo unspecified) | inconclusive: 12.6 µM [inhibitor, single point] |
| COc1cccc(NC(=O)CN(C)C(=O)c2cccc(S(=O)(=O)N3CC4(C)CC3CC(C)(C)C4)c2)c1 (stereo unspecified) | inconclusive: 1.26 µM [inhibitor, full curve, poor fit] |
| O=C(C1CCCN(c2ncnc3c2nc2n3CCCCC2)C1)N1CCN(c2ccccc2F)CC1 (stereo unspecified) | inactive |
| Cn1ccnc1CN1CCCCC1C(=O)Nc1ccc(Oc2cccnc2)cc1 (stereo unspecified) | inconclusive: 7.94 µM [inhibitor, partial curve] |
| COc1ccc(NC(=O)C2CCCN(S(C)(=O)=O)C2)cc1 (stereo unspecified) | inactive |
| CC(C)(C)c1ccc(C(=O)Nc2nnc(SCC(=O)NCC3CCCO3)s2)cc1 (stereo unspecified) | active: 0.891 µM |
| C=CCn1c(C)cc(C(=O)COc2ncnc3sccc23)c1C | inconclusive: 0.891 µM [inhibitor, partial curve, poor fit] |
| CN(C)c1ccc(-c2n(C)c3ccccc3[n+]2C)cc1 | inconclusive: 11.2 µM [inhibitor, partial curve, poor fit] |
| Cc1ccc(S(=O)(=O)NNC2=NS(=O)(=O)c3ccccc32)c(C)c1 | inactive |
| CS(=O)(=O)Nc1cccc(C2=NN(C(=O)c3cccc(F)c3)C(c3cccs3)C2)c1 (stereo unspecified) | inconclusive: 12.6 µM [inhibitor, single point] |
| CN(C)S(=O)(=O)c1ccc(C(=O)Nc2nnc(-c3cccs3)o2)cc1 | inconclusive: 10 µM [inhibitor, single point] |
| CCOc1c2ccoc2nc2c(OC)c(OC)ccc12 | inconclusive: 7.08 µM [inhibitor, single point] |
| C=CCN=C1S/C(=C/c2cccc([N+](=O)[O-])c2)C(=O)N1CC=C | inconclusive: 10 µM [inhibitor, partial curve, poor fit] |
